Assay [1] concerns the target T1, PIRB array peptide … (mouse).
T1 sequence (peptide): DVTYAQLCSRTL
Nature of the assay: peptide or protein array; 12-mer peptides synthesized on a cellulose membrane (SPOT); probed with 5 µM HACS1 SH3 protein in PBST pH 7.4; detected with HRP-conjugated anti-6xHis antibody, chemiluminescence; both purified.

In assay [2] the target is 6xHis-tagged HACS1 SH3 domain (human) (UniProt Q9NSI8). The assay is described as follows: NMR titration; 1H,15N-HSQC of 15N-labeled HACS1 SH3 domain without and with a ten-fold excess of PIRB-GB1, matched NMR buffer, 700 MHz; amide chemical shift perturbations; both purified.
Assay [3] concerns the target T2, 6xHis-MBP tagged HACS1-SH3 domain (human) (UniProt Q9NSI8).
T2 sequence: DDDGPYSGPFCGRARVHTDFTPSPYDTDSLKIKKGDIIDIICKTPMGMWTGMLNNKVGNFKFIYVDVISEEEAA
The assay is described as follows: pull-down; 10 µg purified 6xHis-MBP-HACS1 SH3 domain or 6xHis-MBP mixed with 500 µg mouse bone marrow or splenocyte lysate, overnight with Nickel-NTA resin; washed and eluted with TBST pH 7.4; PIRB detected by Western blot; only the target purified. For orientation: Immunoblotting shows a protein as a band on a membrane.

No constants are given. Whether binding was seen depends on the method and setting. For part of these data: In cells and extracts the contact can be indirect. Some entries that bind do so weakly or less than the wild type. Sequences can lack the tags named with a protein.

B1: 6xHis-MBP tagged HACS1-SH3 domain (domain or fragment, UniProt Q9NSI8 155-228)
chain: DDDGPYSGPFCGRARVHTDFTPSPYDTDSLKIKKGDIIDIICKTPMGMWTGMLNNKVGNFKFIYVDVISEEEAA
With B1, the binding entry in assay [1] is reported as “binds weakly”.

B2: murine PIRB-GB1 fusion protein (peptide, UniProt P97484 797-809)
chain: LCSRTLRQGAAAS
Turning to B2, in assay [2], the binding entry is on record as “binds”.

B3: Paired immunoglobulin receptor B (PIRB) (receptor, UniProt P97484 25-841)
chain: SLPKPILRVQPDSVVSRRTKVTFLCEETIGANEYRLYKDGKLYKTVTKNKQKPENKAEFSFSNVDLSNAGQYRCSYSTQYKSSGYSDLLELVVTGHYWTPSLLAQASPVVTSGGYVTLQCESWHNDHKFILTVEGPQKLSWTQDSQYNYSTRKYHALFSVGPVTPNQRWICRCYSYDRNRPYVWSPPSESVELLVSGNLQKPTIKAEPGSVITSKRAMTIWCQGNLDAEVYFLHNEKSQKTQSTQTLQEPGNKGKFFIPSVTLQHAGQYRCYCYGSAGWSQPSDTLELVVTGIYEYYEPRLSVLPSPVVTAGGNMTLHCASDFPYDKFILTKEDKKFGNSLDTEHISSSGQYRALFIIGPTTPTHTGAFRCYGYYKNAPQLWSVPSALQQILISGLSKKPSLLTHQGHILDPGMTLTLQCFSDINYDRFALHKVGGADIMQHSSQQTDTGFSVANFTLGYVSSSTGGQYRCYGAHNLSSEWSASSEPLDILITGQLPLTPSLSVQPNHTVHSGETVSLLCWSMDSVDTFILSKEGSAQQPLRLKSKSHDQQSQAEFSMSAVTSHLSGTYRCYGAQDSSFYLLSSASAPVELTVSGPIETSTPPPTMSMPLGGLHMYLKALIGVSVAFILFLFIFIFILLRRRHRGKFRKDVQKEKDLQLSSGAEEPITRKGELQKRPNPAAATQEESLYASVEDMQTEDGVELNSWTPPEEDPQGETYAQVKPSRLRKAGHVSPSVMSREQLNTEYEQAEEGQGANNQAAESGESQDVTYAQLCSRTLRQGAAASPLSQAGEAPEEPSVYATLAAARPEAVPKDMEQ
Regarding B3, the binding entry in assay [3] was “binds”.
